# From patent US20180282418A1
# Sequences of proteins named here, by UniProt entry; tags and fusion partners are left off. A change or cut given only in a name is not applied to a line headed by its entry.
# UniProt Q86T13: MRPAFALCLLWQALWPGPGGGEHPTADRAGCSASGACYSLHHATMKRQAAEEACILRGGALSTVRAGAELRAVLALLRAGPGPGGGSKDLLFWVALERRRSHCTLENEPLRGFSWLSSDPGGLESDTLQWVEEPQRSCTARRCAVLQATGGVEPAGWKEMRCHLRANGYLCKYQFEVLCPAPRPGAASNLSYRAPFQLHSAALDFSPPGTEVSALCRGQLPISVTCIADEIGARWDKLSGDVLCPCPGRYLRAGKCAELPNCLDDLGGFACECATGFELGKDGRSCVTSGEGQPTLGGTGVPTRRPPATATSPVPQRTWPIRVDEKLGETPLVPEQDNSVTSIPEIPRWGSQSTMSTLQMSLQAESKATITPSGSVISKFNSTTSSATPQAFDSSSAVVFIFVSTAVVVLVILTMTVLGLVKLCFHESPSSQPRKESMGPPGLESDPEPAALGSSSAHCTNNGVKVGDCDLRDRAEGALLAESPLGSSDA
# Results are given in words; binding and its absence hold for the method and conditions named. Binding seen in cells or lysates may run through a third protein. Some entries that bind do so weakly or less than the wild type. For some of these results: Sequences can lack the tags named with a protein.
# Legend:
# [1] = target: T1, endogenous MMRN2 from HUVEC whole cell lysates (human) (UniProt Q9H8L6); assay: co-immunoprecipitation from HUVEC lysate
# T1 sequence: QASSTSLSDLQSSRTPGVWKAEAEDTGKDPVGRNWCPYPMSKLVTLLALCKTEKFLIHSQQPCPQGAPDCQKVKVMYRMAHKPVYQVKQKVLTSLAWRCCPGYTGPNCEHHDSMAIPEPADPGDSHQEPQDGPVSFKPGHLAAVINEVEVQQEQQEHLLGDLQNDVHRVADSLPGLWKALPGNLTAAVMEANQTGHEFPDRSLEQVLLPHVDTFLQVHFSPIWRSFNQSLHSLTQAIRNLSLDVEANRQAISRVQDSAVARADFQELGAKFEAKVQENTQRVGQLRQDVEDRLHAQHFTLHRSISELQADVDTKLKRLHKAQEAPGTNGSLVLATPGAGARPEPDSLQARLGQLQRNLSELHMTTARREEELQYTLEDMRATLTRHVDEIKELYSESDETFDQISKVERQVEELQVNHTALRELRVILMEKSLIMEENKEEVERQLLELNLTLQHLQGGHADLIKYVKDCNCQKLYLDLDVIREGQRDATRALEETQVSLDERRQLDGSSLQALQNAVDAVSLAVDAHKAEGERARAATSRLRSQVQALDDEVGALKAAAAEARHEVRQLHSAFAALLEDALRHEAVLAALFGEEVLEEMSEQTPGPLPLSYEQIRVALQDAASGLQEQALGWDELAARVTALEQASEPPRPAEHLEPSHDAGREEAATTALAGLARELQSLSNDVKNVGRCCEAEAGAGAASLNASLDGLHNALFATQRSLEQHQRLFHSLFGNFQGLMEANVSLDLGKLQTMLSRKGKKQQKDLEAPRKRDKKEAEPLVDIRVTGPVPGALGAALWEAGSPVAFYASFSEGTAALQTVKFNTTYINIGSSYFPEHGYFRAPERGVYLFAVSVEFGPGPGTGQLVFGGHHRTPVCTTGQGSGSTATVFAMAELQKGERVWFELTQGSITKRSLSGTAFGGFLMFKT
# [2] = target: T1, endogenous MMRN2 from HUVEC whole cell lysates (human); assay: co-immunoprecipitation from HUVEC lysate, Western blot (FIG. 4B)
# [3] = target: T1, endogenous MMRN2 from HUVEC whole cell lysates (human); assay: co-immunoprecipitation from HUVEC whole cell lysate with polyclonal anti-CLEC14A, Western blot
# [4] = target: T2, full-length human MMRN2 with a His tag overexpressed in HEK293T cells (human) (UniProt Q9H8L6); assay: pull-down of His-tagged MMRN2 from HEK293T lysate by CLEC14A-ECD-Fc on protein A beads (FIG. 12)
# T2 sequence: T1 sequence
Substance,binding [1],binding [2],binding [3],binding [4]
endogenous human CLEC14A of HUVEC (from UniProt Q86T13 22-490) (receptor),binds,binds,binds,–
human CLEC14A extracellular domain protein tagged with human Fc (from UniProt Q86T13 22-396) (Fc fusion),–,–,–,binds
